These are yes or no findings as the source states them, for the method shown. Some entries that bind do so weakly or less than the wild type.
Molecular target: amyloid plaques in unfixed human AD brain sections (human) (UniProt P05067)
Assay: immunohistochemistry, unfixed human AD brain sections

The chains behind the UniProt entries cited, without tags or fusion partners. Where a name states a change or a piece, a line headed by the entry shows the natural chain unless it says otherwise.
UniProt P05067: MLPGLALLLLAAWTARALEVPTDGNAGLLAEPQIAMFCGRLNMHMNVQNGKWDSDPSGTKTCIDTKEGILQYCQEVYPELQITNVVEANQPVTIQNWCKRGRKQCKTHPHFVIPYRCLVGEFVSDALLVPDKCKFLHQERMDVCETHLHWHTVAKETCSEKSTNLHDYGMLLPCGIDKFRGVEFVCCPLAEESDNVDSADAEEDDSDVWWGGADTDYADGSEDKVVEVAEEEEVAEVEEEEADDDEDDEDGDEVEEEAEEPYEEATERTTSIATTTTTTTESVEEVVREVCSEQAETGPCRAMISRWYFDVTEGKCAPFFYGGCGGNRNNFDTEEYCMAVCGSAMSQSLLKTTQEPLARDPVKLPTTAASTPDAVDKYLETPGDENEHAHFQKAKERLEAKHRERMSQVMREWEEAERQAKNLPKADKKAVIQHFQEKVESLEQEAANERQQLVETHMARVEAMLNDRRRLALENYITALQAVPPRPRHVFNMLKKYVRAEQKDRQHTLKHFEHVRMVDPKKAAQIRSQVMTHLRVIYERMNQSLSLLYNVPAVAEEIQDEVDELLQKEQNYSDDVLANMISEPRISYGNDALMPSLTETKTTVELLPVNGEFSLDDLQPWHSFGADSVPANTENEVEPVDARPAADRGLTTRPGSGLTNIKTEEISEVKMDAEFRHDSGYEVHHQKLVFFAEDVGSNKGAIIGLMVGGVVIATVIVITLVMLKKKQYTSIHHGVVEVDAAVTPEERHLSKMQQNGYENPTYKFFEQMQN

B1: antibody 1.2 (antibody, human IgG1, kappa, V domains shown)
VH: QVTLKESGPVLLKPTETLTLTCTVSGFSLSNARMGVSWIRQPPGKALEWLAHIFSNDEKSYITSLKSRLTISKDTSKSQVVLTMTNMDPVDTATYYCARIPLRSPGAFDIWGQGTMVTVSS
VL: DIVMTQTPLSSPVTLGQPASISCRSSQSLVHSDGNTYLNWLQQRPGQPPRLLIYKISNRFSGVPDRFTGSGAGTDFTLKISRVEAEDVGVYTCMQVTQFPLTFGQGTRLEIKR
- binding: binds

Reference: patent publication US20110044986A1
